Among the data in US20240239894A1, “THERAPEUTIC BINDING MOLECULES” (MedImmune Limited, priority 2020, published 2024) are binding values, retold here.

The labels stand for the following.
B1: ZY0EO5-E07 human IgG1-TM (antibody, V domains shown)
VH: QVQLQESGPGLVKPSQTLSLTCTVSGGSISSGGYYWSWIRQHPGKGLEWIGNIYYSGSTYYNPSLKSRVTISVDTSKNQFSLKLSSVTAADTAVYYCAREKALASVIPSGYENYYVVDVWGQGTTVTVSS
VL: DIQLTQSPSFLSASVGGRVTITCWASQGIAGYLAWYQQKPGKAPKLLIYAASTLQSGVPSRFSGSGSGTEFTLTISSLQPEDFATYYCQHLNSYPLTFGGGTKVEIK
B2: ZY0EOB-F05 murine IgG1 (antibody, V domains shown)
VH: B1 VH with G26D, S85N, R99T, S105T, I107T, V116T
VL: B1 VL with G17D, A30S, G31S
B3: ZY0EO5-E07 murine IgG1 (antibody, V domains shown)
VH: B1 VH
VL: B1 VL
B4: ZY0EOB-F05 human IgG1-TM (antibody, V domains shown)
VH: B1 VH with G26D, S85N, R99T, S105T, I107T, V116T
VL: B1 VL with G17D, A30S, G31S
B5: ZY0EPQ-E02 murine IgG1 (antibody, V domains shown)
VH: QVQLQQWGAGLLKPSETLSLTCAVYGGSFSGYYWNWIRQPPGKGLEWIGEINHSGSTNYNPSLKSRVTILVDTSKNQFSLKLSSVTAADTAVYYCARNLYNWNLDSWGQGTLVTVSS
VL: DIQMTQSPSSLSASVGDRVTITCRASQGIRNDLGWYQQKPGRAPKRLIYVASSLQSGVPSRFSGSGSGTEFTLTISSLQPEDFATYYCLQHNSYPRTFGQGTKVEIK
B6: ZY0EQD-E02 human IgG1-TM (antibody, V domains shown)
VH: B5 VH with N58S, L70S, N98V, L104V
VL: B5 VL with G28D, L33V, R42K, V50A, S53R
B7: ZY0EPQ-E02 human IgG1-TM (antibody, V domains shown)
VH: B5 VH
VL: B5 VL
B8: ZY0EQD-E02 murine IgG1 (antibody, V domains shown)
VH: B5 VH with N58S, L70S, N98V, L104V
VL: B5 VL with G28D, L33V, R42K, V50A, S53R
B9: ZY0EP0-C07 murine IgG1 (antibody, V domains shown)
VH: QVQLVESGGVLVKPGGSLRLSCAASGFTLSDYYMSWIRQAPGMGLEWVSYISSSGSTIYYTDSVKGRFTISRDSAKNSLYLQMNSLRAEDTAVYYCARDGVGFDYWGQGTLVTVSS
VL: EIVLTQSPGTLSLFPGERATLSCRASQSVSSSYLAWYQQKPGQSPRLLIYAASSRATGIPDRFSGSGSGTDFTLTISRLEPEDFAVYYCQQYGSSPLYTFGQGTKLEIK
B10: ZY0EP0-C07 human IgG1-TM (antibody, V domains shown)
VH: B9 VH
VL: B9 VL

Numbering of substitutions follows the chain as printed. No constants are given. Whether binding was seen depends on the method and setting.

The experiment has as its target huMOG1 (human). Kind of experiment: ELISA. For orientation: An ELISA detects its analyte on a solid surface through an enzyme-linked reagent.
In the case of B1, the binding result is given as “no binding”.
Turning to B2, the binding entry is recorded as “no binding”.
The result for B3 reads “no binding”.
Consider B4, for which the binding result is given as “no binding”.
Turning to B5, the binding result is “no binding”.
Under B6 stands “no binding”; under B7, “no binding”.
The result for B8 reads “no binding”; that for B9, “no binding”.
For B10, the binding result is “no binding”.
